Data reported in patent publication US20140259226A1.
No constants are given. Whether binding was seen depends on the method and setting. Some entries that bind do so weakly or less than the wild type.

Protein sequences, listed by entry. Tags and fused reporters are not part of them. Lines headed by an entry give the natural chain unless they say otherwise; changes in a name come on top. Residues count along the entry.
UniProt Q9CAJ0, residues 23-511: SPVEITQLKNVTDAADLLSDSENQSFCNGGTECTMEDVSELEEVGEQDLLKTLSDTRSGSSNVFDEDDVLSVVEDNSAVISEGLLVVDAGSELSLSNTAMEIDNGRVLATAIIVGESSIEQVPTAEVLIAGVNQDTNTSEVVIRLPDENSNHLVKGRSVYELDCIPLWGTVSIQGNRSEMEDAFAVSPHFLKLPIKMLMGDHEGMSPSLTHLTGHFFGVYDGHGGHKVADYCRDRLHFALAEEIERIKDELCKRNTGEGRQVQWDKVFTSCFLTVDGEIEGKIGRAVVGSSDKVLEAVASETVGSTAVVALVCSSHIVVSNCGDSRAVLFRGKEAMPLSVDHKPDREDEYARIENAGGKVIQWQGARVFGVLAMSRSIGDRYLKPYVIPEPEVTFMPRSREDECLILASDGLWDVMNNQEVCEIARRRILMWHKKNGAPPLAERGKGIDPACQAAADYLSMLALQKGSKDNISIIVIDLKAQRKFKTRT
UniProt O49686: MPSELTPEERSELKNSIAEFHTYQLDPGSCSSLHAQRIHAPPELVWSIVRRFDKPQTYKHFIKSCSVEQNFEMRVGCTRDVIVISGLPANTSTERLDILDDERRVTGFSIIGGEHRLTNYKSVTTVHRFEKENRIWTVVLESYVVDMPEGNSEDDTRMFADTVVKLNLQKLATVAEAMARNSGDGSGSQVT

Molecular target: GAL4 activation domain-HAB1 fusion protein (UniProt Q9CAJ0)
Assay: yeast two-hybrid, X-gal staining, no added ABA; strength of activating mutation

| binding | Substance |
| --- | --- |
| binds | GAL4 BD-PYR1 H60K (from UniProt O49686 1-191) (receptor) |
| binds | GAL4 BD-PYR1 H60R (from UniProt O49686 1-191) (receptor) |
| binds | GAL4 BD-PYR1 M158C (from UniProt O49686 1-191) (receptor) |
| binds | GAL4 BD-PYR1 M158T (from UniProt O49686 1-191) (receptor) |
| binds | GAL4 BD-PYR1 L166Y (from UniProt O49686 1-191) (receptor) |
| binds | GAL4 BD-PYR1 M158I (from UniProt O49686 1-191) (receptor) |
| binds | GAL4 BD-PYR1 H60M (from UniProt O49686 1-191) (receptor) |
| binds | GAL4 BD-PYR1 F159A (from UniProt O49686 1-191) (receptor) |
| binds | GAL4 BD-PYR1 H60G (from UniProt O49686 1-191) (receptor) |
| binds | GAL4 BD-PYR1 V83L (from UniProt O49686 1-191) (receptor) |
| binds | GAL4 BD-PYR1 A89W (from UniProt O49686 1-191) (receptor) |
| binds | GAL4 BD-PYR1 V83F (from UniProt O49686 1-191) (receptor) |
| binds | GAL4 BD-PYR1 H60A (from UniProt O49686 1-191) (receptor) |
| binds | GAL4 BD-PYR1 L166F (from UniProt O49686 1-191) (receptor) |
| binds | GAL4 BD-PYR1 K170W (from UniProt O49686 1-191) (receptor) |
| binds | GAL4 BD-PYR1 H60W (from UniProt O49686 1-191) (receptor) |
| binds | GAL4 BD-PYR1 I84H (from UniProt O49686 1-191) (receptor) |
| binds | GAL4 BD-PYR1 I84K (from UniProt O49686 1-191) (receptor) |
| binds | GAL4 BD-PYR1 I84E (from UniProt O49686 1-191) (receptor) |
| binds | GAL4 BD-PYR1 T162F (from UniProt O49686 1-191) (receptor) |
| binds | GAL4 BD-PYR1 H60V (from UniProt O49686 1-191) (receptor) |
| binds | GAL4 BD-PYR1 H60I (from UniProt O49686 1-191) (receptor) |
| binds | GAL4 BD-PYR1 H60P (from UniProt O49686 1-191) (receptor) |
| binds | GAL4 BD-PYR1 M158V (from UniProt O49686 1-191) (receptor) |
| binds | GAL4 BD-PYR1 I84P (from UniProt O49686 1-191) (receptor) |
| binds | GAL4 BD-PYR1 V83P (from UniProt O49686 1-191) (receptor) |
| binds | GAL4 BD-PYR1 L87F (from UniProt O49686 1-191) (receptor) |
| binds | GAL4 BD-PYR1 F159V (from UniProt O49686 1-191) (receptor) |
| binds | GAL4 BD-PYR1 I84Q (from UniProt O49686 1-191) (receptor) |
